Experimental data published in paper PMC3781056, “New Pyrazolopyrimidine Inhibitors of Protein Kinase D as Potent Anticancer Agents for Prostate Cancer Cells” (PLoS ONE, 2013).

Biological target: T1, PKD1 (Homo sapiens, UniProt Q15139)
T1 construct: GST; purchased Enzo Life sciences (Farmingdale, NY)
T1 sequence (Q15139 1-912): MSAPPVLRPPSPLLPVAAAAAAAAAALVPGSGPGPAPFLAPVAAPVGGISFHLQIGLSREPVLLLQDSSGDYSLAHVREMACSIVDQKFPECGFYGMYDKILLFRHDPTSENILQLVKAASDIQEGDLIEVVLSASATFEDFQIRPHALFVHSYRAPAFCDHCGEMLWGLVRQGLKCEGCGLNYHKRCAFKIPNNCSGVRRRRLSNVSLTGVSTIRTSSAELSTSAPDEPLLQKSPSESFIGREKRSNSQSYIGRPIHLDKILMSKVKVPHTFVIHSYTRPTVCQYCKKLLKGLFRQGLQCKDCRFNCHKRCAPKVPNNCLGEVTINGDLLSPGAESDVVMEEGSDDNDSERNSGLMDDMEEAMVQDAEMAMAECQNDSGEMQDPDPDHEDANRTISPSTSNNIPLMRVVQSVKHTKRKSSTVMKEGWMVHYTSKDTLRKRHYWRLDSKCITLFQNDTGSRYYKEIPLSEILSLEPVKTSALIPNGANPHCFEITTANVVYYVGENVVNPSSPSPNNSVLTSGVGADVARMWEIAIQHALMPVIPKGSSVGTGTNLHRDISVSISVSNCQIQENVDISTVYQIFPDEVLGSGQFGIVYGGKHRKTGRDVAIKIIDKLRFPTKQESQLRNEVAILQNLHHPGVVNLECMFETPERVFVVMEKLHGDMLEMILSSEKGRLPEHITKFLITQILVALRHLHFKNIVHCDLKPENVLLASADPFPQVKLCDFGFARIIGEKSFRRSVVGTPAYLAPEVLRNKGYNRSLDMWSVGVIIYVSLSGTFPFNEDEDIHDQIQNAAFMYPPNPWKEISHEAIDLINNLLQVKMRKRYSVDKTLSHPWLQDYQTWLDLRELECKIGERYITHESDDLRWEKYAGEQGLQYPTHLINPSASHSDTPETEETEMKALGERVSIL
Assay: In vitro radiometric PKD1 screening assay at 1 µM
Type: biochemical
Settings: targeted kinase inhibitor library screen, relative to DMSO
Experimental: Phosphorylation of HDAC5 was detected in a kinase reaction having 1 µCi [γ-^32P] […] The reaction was incubated at 30°C for 10 minutes and 25 µL of the reaction was spotted on Whatman P81 filter paper. The filter paper was washed 3 times in 0.5% phosphoric acid, air dried and counted using Beckman LS6500 multipurpose scintillation counter. Percent PKD1 inhibition was graphed using GraphPad Prism software 5.0.

Structure (SMILES): O=C1NC(=O)c2c1c(-c1ccccc1)cc1[nH]c3ccc(O)cc3c21 [PD 407824]
- % PKD1 Inhibition: 57%
